Drawing on article PMC6584689, this text covers binding for one substance.

Results are given in words; binding and its absence hold for the method and conditions named. In cells and extracts the contact can be indirect. A result given as binding can be weak or reduced; the word gives no strength. Where a sequence is shown, tags or fusion partners need not be part of it.

The target in this assay is T1, Flag-LKB1 (FL) (UniProt Q15831).
T1 sequence: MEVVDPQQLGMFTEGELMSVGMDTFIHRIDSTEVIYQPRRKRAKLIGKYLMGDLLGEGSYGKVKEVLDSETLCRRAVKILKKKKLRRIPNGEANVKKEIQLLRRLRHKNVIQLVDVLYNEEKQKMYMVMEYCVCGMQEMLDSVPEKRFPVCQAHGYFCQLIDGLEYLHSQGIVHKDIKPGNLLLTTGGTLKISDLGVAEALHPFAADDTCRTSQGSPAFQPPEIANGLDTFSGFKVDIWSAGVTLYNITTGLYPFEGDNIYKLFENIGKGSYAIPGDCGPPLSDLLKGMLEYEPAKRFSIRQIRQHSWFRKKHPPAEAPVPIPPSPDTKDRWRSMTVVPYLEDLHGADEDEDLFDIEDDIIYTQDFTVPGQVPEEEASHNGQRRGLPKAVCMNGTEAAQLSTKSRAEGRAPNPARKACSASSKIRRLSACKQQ
Briefly: co-IP; transfected 293T cells lysed in RIPA buffer (50 mM Tris-HCl pH 7.6, 150 mM NaCl, 1 mM EDTA, 1% NP-40); Flag-tagged bait precipitated with anti-Flag M2 Affinity Gel at 4 °C overnight; washed three times with PBST; western blot. (In general: A western blot detects proteins with antibodies after separation by electrophoresis.)

On to FBXO22ΔF (domain or fragment), for which the binding result is reported as “binds”.
